# Data as given in PubChem BioAssay AID1259289 (Sanger Institute, 2017)
# Aim: 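Kinase-wide silencing tested with three anchor drugs to reveal synergistic lethal pairs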 (primary screen)
# Cells: human LS513 colorectal cancer cells
# Reagents: siRNA pool against human genes
# Treatment: anchor drug BYL719 at 1 µM, cetuximab at 5 µg/ml or trametinib at 10 nM, or DMSO vehicle alone; exposure time not given
# Detection: 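Survival versus non-targeting pool for each arm averaged over replicates, robust z-score in the arm with DMSO only, and synergy scores for BYL719, cetuximab or trametinib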
# Scale: robust z-score, siRNA alone (DMSO): higher = more viable cells; strongly negative means essential; viability with DMSO vs control: higher = more viable cells
# Rule for the call: 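a gene counts as active if its DMSO-only robust z-score falls under -3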
# Meaning of the calls: active = essential (knock-down alone); inactive = not essential
# The whole screen tested 794 reagents; shown is a random part of them. 16 of all reagents (2%) were called active. 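Active marks cell loss from silencing alone; drug synergy shows only in the synergy scores, not the calls.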 A number with no mark means an inactive call. Viability is capped at 1. Further read-outs or replicates are left out here. Not given: the amount of reagent, the time to read-out.
target gene,"robust z-score, siRNA alone (DMSO)",viability with DMSO vs control (fraction of control)
CAMK2N1 (GeneID 55450),-0.214,0.89
CAMK1G (GeneID 57172),0.561,1
CDKL5 (GeneID 6792),0.527,0.995
PRKCE (GeneID 5581),0.373,0.973
FER (GeneID 2241),0.561,1
MAP3K3 (GeneID 4215),-0.508,0.848
CDK15 (GeneID 65061),0.561,1

Continued, starting with the last 2 of the part before.
target gene,"robust z-score, siRNA alone (DMSO)",viability with DMSO vs control (fraction of control)
MAP3K3 (GeneID 4215),-0.508,0.848
CDK15 (GeneID 65061),0.561,1
EPHA2 (GeneID 1969),0.561,1
HIPK1 (GeneID 204851),0.129,0.939
CSF1R (GeneID 1436),-1.96,0.642
CDKN2C (GeneID 1031),0.561,1
PKN3 (GeneID 29941),0.561,1
MGA (GeneID 23269),-2.15,0.615
CDC42BPA (GeneID 8476),0.561,1
PSTK (GeneID 118672),-0.105,0.906
MAPK3 (GeneID 5595),0.561,1
NRK (GeneID 203447),0.561,1
PIM3 (GeneID 415116),0.561,1
CKMT1B (GeneID 1159),-0.113,0.904
BCKDK (GeneID 10295),0.561,1
